No constants are given. Whether binding was seen depends on the method and setting. Binding seen in cells or lysates may run through a third protein. A yes stands for co-enrichment or nearness to the bait. Other partners may have been found. Tags and fused reporters may be left off the sequences shown.
Target: T1, EGFP-tagged Plk2 kinase-inactive mutant (Plk2 KD, N210A) (UniProt Q9NYY3)
T1 sequence: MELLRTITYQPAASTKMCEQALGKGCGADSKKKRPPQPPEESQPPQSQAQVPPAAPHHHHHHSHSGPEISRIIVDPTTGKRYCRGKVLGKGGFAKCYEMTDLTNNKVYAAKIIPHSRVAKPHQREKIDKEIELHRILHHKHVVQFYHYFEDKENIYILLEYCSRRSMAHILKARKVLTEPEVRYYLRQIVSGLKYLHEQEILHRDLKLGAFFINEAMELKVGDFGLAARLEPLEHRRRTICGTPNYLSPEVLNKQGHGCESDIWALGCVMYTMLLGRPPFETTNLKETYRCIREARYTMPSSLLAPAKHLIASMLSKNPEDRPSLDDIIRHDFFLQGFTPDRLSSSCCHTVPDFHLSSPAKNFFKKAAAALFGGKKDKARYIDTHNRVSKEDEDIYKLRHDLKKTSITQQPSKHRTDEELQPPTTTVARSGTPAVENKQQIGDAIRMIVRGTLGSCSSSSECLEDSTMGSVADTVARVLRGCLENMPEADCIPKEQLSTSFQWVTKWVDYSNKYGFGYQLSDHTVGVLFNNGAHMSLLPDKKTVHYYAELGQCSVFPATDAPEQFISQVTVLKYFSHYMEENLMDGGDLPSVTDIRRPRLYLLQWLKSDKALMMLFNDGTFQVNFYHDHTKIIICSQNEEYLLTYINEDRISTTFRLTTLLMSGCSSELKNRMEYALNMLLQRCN
Assay: affinity purification with mass spectrometry; EGFP-Plk2 KD or EGFP alone overexpressed in HeLa cells, immunoprecipitated with anti-GFP antibodies; SDS-PAGE, silver staining, bands cut out and analysed by nanoHPLC ESI QTOF MS

Protein sequences, listed by entry. Tags and fused reporters are not part of them.
UniProt P06748: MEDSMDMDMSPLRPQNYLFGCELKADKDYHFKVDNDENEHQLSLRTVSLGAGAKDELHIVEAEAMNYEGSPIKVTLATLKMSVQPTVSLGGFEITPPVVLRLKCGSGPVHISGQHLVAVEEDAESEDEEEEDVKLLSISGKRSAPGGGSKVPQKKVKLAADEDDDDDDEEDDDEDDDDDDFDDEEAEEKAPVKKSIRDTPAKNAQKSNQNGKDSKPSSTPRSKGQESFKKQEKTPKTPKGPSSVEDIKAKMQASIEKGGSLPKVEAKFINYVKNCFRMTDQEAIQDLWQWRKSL

NPM/B23 (Nucleophosmin), endogenous in HeLa cells (from UniProt P06748 1-294)
binding: binds

Reference: publication PMC2844433, “Polo-Like Kinase 2-Dependent Phosphorylation of NPM/B23 on Serine 4 Triggers Centriole Duplication” (PLoS ONE, 2010)
